Measured values: publication PMC11414393
No constants are given. Whether binding was seen depends on the method and setting. In cells and extracts the contact can be indirect. Some entries that bind do so weakly or less than the wild type. Sequences can lack the tags named with a protein.

Sequences of proteins named here, by UniProt entry; tags and fusion partners are left off.
UniProt P10244: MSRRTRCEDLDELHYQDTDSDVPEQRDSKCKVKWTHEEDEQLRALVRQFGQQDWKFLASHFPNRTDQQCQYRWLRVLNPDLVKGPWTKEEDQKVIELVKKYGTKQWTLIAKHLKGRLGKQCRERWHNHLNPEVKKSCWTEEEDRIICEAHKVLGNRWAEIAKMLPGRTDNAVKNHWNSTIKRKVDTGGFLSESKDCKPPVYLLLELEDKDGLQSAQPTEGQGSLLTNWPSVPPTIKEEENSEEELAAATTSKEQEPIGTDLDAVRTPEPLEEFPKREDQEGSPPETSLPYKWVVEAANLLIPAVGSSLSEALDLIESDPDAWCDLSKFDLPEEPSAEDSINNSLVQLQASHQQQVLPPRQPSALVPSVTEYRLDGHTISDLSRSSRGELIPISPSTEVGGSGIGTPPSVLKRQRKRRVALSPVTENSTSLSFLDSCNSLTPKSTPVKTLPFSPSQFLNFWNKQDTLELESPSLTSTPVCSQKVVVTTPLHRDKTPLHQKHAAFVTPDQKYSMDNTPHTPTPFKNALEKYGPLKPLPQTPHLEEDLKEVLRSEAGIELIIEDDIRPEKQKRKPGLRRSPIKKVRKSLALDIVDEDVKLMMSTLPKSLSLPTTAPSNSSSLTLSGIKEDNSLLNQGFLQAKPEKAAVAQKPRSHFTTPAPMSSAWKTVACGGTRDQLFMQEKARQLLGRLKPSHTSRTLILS

Molecular target: T1, Flag-NFYB (UniProt P25208)
T1 sequence: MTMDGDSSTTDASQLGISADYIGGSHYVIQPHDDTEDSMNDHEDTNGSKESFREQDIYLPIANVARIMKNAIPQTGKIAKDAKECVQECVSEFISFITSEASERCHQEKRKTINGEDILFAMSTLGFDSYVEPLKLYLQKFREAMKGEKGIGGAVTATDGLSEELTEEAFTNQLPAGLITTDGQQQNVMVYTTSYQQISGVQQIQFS
Assay: co-IP; 293T cells co-transfected with Flag-NFYB and B-Myb constructs for 48 h; precleared whole cell lysates incubated with anti-Flag antibody or normal rabbit IgG overnight at 4 °C, captured on Protein A/G Magnetic Beads, immunoblotting

B-Myb (MYB proto-oncogene like 2) (from UniProt P10244 1-700)
binding: binds
